# According to PubChem BioAssay (Tox21):
# Chains of the proteins cited; added tags and fusions are not shown.
# UniProt P14416, whole entry, looked up: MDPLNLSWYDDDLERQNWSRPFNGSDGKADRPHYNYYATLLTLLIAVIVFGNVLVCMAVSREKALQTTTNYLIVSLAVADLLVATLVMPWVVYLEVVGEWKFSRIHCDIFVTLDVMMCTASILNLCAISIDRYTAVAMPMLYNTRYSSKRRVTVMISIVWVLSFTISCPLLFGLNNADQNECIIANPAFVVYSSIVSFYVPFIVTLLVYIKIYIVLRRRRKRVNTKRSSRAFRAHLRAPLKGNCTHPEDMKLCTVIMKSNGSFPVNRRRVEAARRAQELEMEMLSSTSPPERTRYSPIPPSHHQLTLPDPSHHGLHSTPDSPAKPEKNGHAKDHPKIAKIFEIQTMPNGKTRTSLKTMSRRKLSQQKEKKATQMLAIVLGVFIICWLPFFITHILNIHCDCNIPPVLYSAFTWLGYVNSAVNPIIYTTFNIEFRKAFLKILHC
# Several values for one entry are separate records, joined by “and”; a condition that tells them apart may be missing. Identical values can stand only once. Inconclusive results, whose numbers are uncertain, are shown with a selection of clear calls. Potencies beside an inconclusive call are fits to weak or partial responses and may not hold up. Activity calls are given as the source filed them. Unless noted, calls come from the whole dose curve.
# Tests used:
# [1] = Nuclear factor erythroid 2-related factor 2/antioxidant responsive element (Nrf2/ARE) small molecule agonists: luciferase reporter gene qHTS assay in human keratinocytes (AID 1919969); conditions: KeratinoSens HaCaT ARE-luciferase, luminescence, 24 h; activity, positive = activation: at 92.4 µM (top of the series); note: nearly all actives have a fitted effect of over 35% in size
# [2] = cAMP Responsive Elements (CRE) small molecule antagonists, cell-based qHTS assay (AID 1963591; active = well fitted inhibition curve with a large enough effect in the signal ratio in the repeat runs, not every such curve was filed as active; inconclusive = weak or mixed curves, or effect the other way; the % refers to the signal ratio); conditions: CRE-bla HEK293T, beta-lactamase FRET ratio; activity change, negative = inhibition: at 92.4 µM (top of the series) unless noted
# Outline: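 HEK293T cells carrying a CRE-driven beta-lactamase reporter receive compound and NKH477 (0.25 uM final) for 3 h. Fluorescence from LiveBLAzer B/G FRET substrate is read after 2 h at room temperature.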
# [3] = molecular target: Beta-2 adrenergic receptor (Homo sapiens) (UniProt P07550); assay: Adrenergic beta2 receptor (ADRB2) small molecule agonists, cell-based qHTS assay (AID 1963593); conditions: CHO-ADRB2 cells, cAMP HTRF, 30 min;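 for activation: CHO cells stably overexpressing human ADRB2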
# Outline: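 CHO cells stably over-expressing ADRB2 were plated overnight at 37C, then dosed with compounds plus a stimulation mix containing 100uM IBMX and 25uM Ro-20-1724 for 0.5hr at room temperature. cAMP was measured by HTRF competition, 1hr.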
# [4] = molecular target: D(2) dopamine receptor (Homo sapiens) (UniProt P14416); assay: Dopamine D2 receptor (DRD2) small molecule agonists, cell-based qHTS assay (AID 1963594); conditions: HEK293-DRD2 cAMP HTRF, agonist mode, 30 min; activation: at 92.4 µM (top of the series) unless noted; note: nearly all actives have a fitted effect of over 35% in size
# Outline: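 HEK293 cells stably expressing DRD2 were cultured 24 h at 37 C, then given Ro20-1724 (0.1 mM final) and compounds for 10 min at room temperature. NKH477 (200nM) was then added for 30 min. cAMP was read by HTRF.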
# [5] = molecular target: D(2) dopamine receptor (Homo sapiens) (UniProt P14416); assay: Dopamine D2 receptor (DRD2) small molecule antagonists, cell-based qHTS assay (AID 1963595; active = well fitted inhibition curve with a large enough effect in the signal ratio in the repeat runs, with a control signal flat; inconclusive = weak or mixed curves, or effect the other way; the % refers to the signal ratio); conditions: HEK293-DRD2 cAMP HTRF antagonist mode; activity change, negative = inhibition: at 92.4 µM (top of the series) unless noted
# Outline: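 Antagonist mode in DRD2-HEK293 cells: after compound addition with 0.1 mM Ro20-1724, cells received quinpirole (12 nM) and NKH477 (200 nM) for 30 min at room temperature; HTRF cAMP read after 1 h detection.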
# [6] = molecular target: Beta-2 adrenergic receptor (Homo sapiens) (UniProt P07550); assay: Adrenergic beta2 receptor (ADRB2) small molecule antagonists, cell-based qHTS assay (AID 1963592); conditions: CHO-ADRB2 cells, isoproterenol-stimulated cAMP HTRF ratio, 0.5 h; activity change, negative = inhibition: at 92.4 µM (top of the series) unless noted; note: nearly all actives have a fitted effect of over 50% in size
# Outline: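 Cells (CHO, stable ADRB2 overexpression) incubated 18-20hr at 37C; compounds added from DMSO; agonist mix (1nM isoproterenol, 100uM IBMX, 25uM Ro-20-1724) added; 0.5hr RT; d2-cAMP and anti-cAMP-cryptate added; 1hr RT; 665/615 nm read.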
# [7] = activation: at 92.4 µM (top of the series) unless noted
# % is set by controls: 0 for no effect and ±100 for the full control effect; potency is the fitted concentration of half-maximal effect.
smiles,measurement,setting,value
COc1cccc(O)c1O,Potency,[1],active: 28.4 µM
same,Potency,[2],inconclusive: 35.7 µM [activator]
same,Potency,[3]; [7],"inconclusive: 63500 nM [falling, single point]"
same,Potency,[4],"inconclusive: 47 µM [falling, partial curve]"
same,Potency,[5],"inconclusive: 71.2 µM [cytotoxic, single point]"
CCCCCCCCCCCCSC#N,Potency,[1],"inconclusive: 68.6 µM [activator, single point]"
same,"activity change, negative = inhibition",[2],inconclusive: -7.88%
same,activation,[3]; [7],inconclusive: 5.88%
CC(C)NC(=O)NC(C)C,Potency,[1],"inconclusive: 68.6 µM [activator, single point]"
same,Potency,[2],inactive
same,activation,[3]; [7],inconclusive: -5.55%
CC(=O)OC1CCCCC1C(C)(C)C (stereo not drawn),Potency,[1],inactive
same,Potency,[2],inconclusive: 68.6 µM [activator]
same,Potency,[3]; [7],inactive
CC(C)CCCO,Potency,[1],inactive
same,Potency,[6],inactive
same,Potency,[3]; [7],inactive
c1ccc2c(c1)[nH]c1ccccc12,Potency,[1],inactive
same,"activity change, negative = inhibition",[6],inconclusive: 0.217%
same,Potency,[3]; [7],"inconclusive: 23.9 µM [inhibitor, full curve, poor fit] and inconclusive: 77 µM [inhibitor, single point]"
O=C(O)c1ccc(CO)o1,Potency,[1],inactive
same,Potency,[3]; [7],inactive
CC(C)CCOCCC(C)C,Potency,[1],inactive
same,Potency,[3]; [7],inactive
CCC(C)c1cc(C(C)(C)C)c(O)c(C(C)(C)C)c1 (stereo not drawn),Potency,[1],active: 16.9 µM
same,activation,[3]; [7],inconclusive: -2.92%
CCCCCCCCCCCCCCC,Potency,[1],inactive
same,activation,[3]; [7],inconclusive: -15.9%
C=CC(=O)NC(C)(C)C,Potency,[1],inactive
same,activation,[3]; [7],inconclusive: 2.29%
c1ccc(CCNc2nc(-c3ccccc3)cs2)cc1,Potency,[1],active: 0.596 µM
same,Potency,[6],"inconclusive: 29.8 µM [inhibitor, single point]"
same,"activity change, negative = inhibition",[5],inconclusive: 1.79% [at 42.5 µM]
CC1CCC(CO)CC1 (stereo not drawn),Potency,[1],"inconclusive: 71 µM [activator, single point]"
same,Potency,[3]; [7],inactive
CC(C)(C)NSc1nc2ccccc2s1,Potency,[1],active: 24.8 µM
same,activation,[3]; [7],inconclusive: 0.522%
c1ccc2sc(SSc3nc4ccccc4s3)nc2c1,Potency,[1],"inconclusive: 16.4 µM [activator, single point]"
same,activation,[3]; [7],inactive: 0.998% [at 19 µM]
CCCCCCCC/C=C\CCCCCCCCCCCC(=O)O,Potency,[1],inactive
same,activation,[3]; [7],inconclusive: 6.48%
CC(=O)CCc1ccc(OC(C)=O)cc1,Potency,[1],"inconclusive: 6.11 µM [activator, single point]"
same,activation,[3]; [7],inconclusive: 0.407%
CN1CCCC1=O,Potency,[1],"inconclusive: 28.2 µM [activator, partial curve, poor fit]"
same,activation,[3]; [7],inconclusive: -16%
O=C(NCN1CCOCC1)c1cnccn1,Potency,[1],inactive
same,Potency,[3]; [7],inactive
CC1=C(CC=O)C(C)(C)CCC1,Potency,[1],inactive
same,activation,[3]; [7],inconclusive: 16.4%
O=[N+]([O-])c1cccc(C(F)(F)F)c1,Potency,[1],"inconclusive: 27.5 µM [activator, single point]"
same,Potency,[3]; [7],inconclusive: 194 nM [inhibitor]
O=C(CS(=O)Cc1ccco1)NC/C=C\COc1cc(CN2CCCCC2)ccn1 (stereo not drawn),Potency,[1],"inconclusive: 33.5 µM [activator, single point]"
same,Potency,[3]; [7],inactive
CC/C=C\CCCCCO,Potency,[1],"inconclusive: 54.5 µM [activator, partial curve, poor fit]"
same,Potency,[6],inactive
same,Potency,[5],inactive
Cn1cc(C(=O)[C@@H]2CCc3nc[nH]c3C2)c2ccccc21,Potency,[1],"inconclusive: 33.5 µM [activator, single point]"
same,activation,[3]; [7],inconclusive: 3.07% [at 42.5 µM]
Cc1cccc2nccnc12,Potency,[1],inactive
same,activation,[3]; [7],inconclusive: 14.9%
Sc1nc(S)nc(S)n1,Potency,[1],"inconclusive: 3.74 µM [activator, single point]"
same,Potency,[3]; [7],inactive
C[Si]1(C)O[Si](C)(C)O[Si](C)(C)O1,Potency,[1],inactive
same,activation,[3]; [7],inconclusive: 4.32%
Cc1c[nH]c(=S)[nH]c1=O,Potency,[1],"inconclusive: 68.7 µM [activator, single point]"
same,Potency,[3]; [7],inactive
O=CN(CCO)CCO,Potency,[1],inactive
same,activation,[3]; [7],inconclusive: -3.38%
O=C(O)c1cc(=O)[nH]c(=O)[nH]1,Potency,[1],"inconclusive: 33.5 µM [activator, single point]"
same,Potency,[3]; [7],inactive
ClC(Cl)(Cl)c1ccc(C(Cl)(Cl)Cl)cc1,Potency,[1],"inconclusive: 53.9 µM [activator, partial curve, poor fit]"
same,activation,[3]; [7],inconclusive: 23.1%
CCC(C)OC(=O)N1CCCCC1CCO (stereo not drawn),Potency,[1],"inconclusive: 68.6 µM [activator, partial curve, poor fit]"
same,activation,[3]; [7],inconclusive: 17.7%
CCCC(C)C(=O)OCC (stereo not drawn),Potency,[1],inactive
same,"activity change, negative = inhibition",[6],inconclusive: -8.33%
same,Potency,[3]; [7],inactive
CS(C)=O,Potency,[1],"inconclusive: 77 µM [activator, single point]"
same,Potency,[6],inactive
same,Potency,[3]; [7],inactive
same,Potency,[5],inactive
Cc1occc1S,Potency,[1],active: 68.6 µM
same,activation,[3]; [7],inconclusive: -29.2%
CCCCCCCC/C=C\CCCCCCCC(=O)OCC,Potency,[1],inactive
same,Potency,[3]; [7],"inconclusive: 48600 nM [inhibitor, partial curve]"
CCOC(=O)CC(=O)C(=O)OCC,Potency,[1],"inconclusive: 68.6 µM [activator, partial curve, poor fit]"
same,activation,[3]; [7],inconclusive: 19.4%
CCCCCC(CC)OC(=O)CCCOc1ccc(Cl)cc1Cl (stereo not drawn),Potency,[1],inactive
same,Potency,[3]; [7],inactive
CCCCSCCCC,Potency,[1],inactive
same,Potency,[6],inactive
same,activation,[3]; [7],inconclusive: 6.46%
CC(C)CCCCCCOC(=O)C1CCCCC1C(=O)OCCCCCCC(C)C (stereo not drawn),Potency,[1],"inconclusive: 61.1 µM [activator, partial curve, poor fit]"
same,Potency,[3]; [7],"inconclusive: 2170 nM [inhibitor, full curve, poor fit]"
C=C(C)C(=O)OCCCCCCCCCCOC(=O)C(=C)C,Potency,[1],inactive
same,activation,[3]; [7],inconclusive: 6.09%
C[N+]1(C)[C@@H]2CC(OC(=O)[C@H](CO)c3ccccc3)C[C@H]1[C@@H]1O[C@@H]12 (stereo partly drawn),Potency,[1],inactive
same,Potency,[3]; [7],"inconclusive: 668 nM [activator, full curve]"
COc1cccc(OC)c1,Potency,[1],inactive
same,Potency,[3]; [7],inactive
CCCCCCCCCCOc1cc2c(=O)c(C(=O)OCC)c[nH]c2cc1OCC,"activity, positive = activation",[1],inactive: -2.6% [at 8.39 µM]
same,Potency,[3]; [7],"inconclusive: 211 nM [inhibitor, partial curve, poor fit]"
CC(CO)Oc1ccccc1 (stereo not drawn),Potency,[1],inactive
same,Potency,[3]; [7],inactive
CCc1ccc(C)cc1,Potency,[1],"inconclusive: 27 µM [activator, single point]"
same,Potency,[3]; [7],"inconclusive: 539 nM [inhibitor, single point]"
CC(C)(C)C1=CC(=O)C=C(C(C)(C)C)C1=O,Potency,[1],"inconclusive: 61.1 µM [activator, single point]"
same,activation,[3]; [7],inconclusive: -9.66%
CC(=O)c1ccc(OCC(=O)N2CCCCC2)cc1,Potency,[1],inconclusive: 26.6 µM [activator]
same,activation,[3]; [7],inconclusive: 5.8% [at 42.5 µM]
NNC(=O)OCc1ccccc1,Potency,[1],"inconclusive: 27.3 µM [activator, single point]"
same,Potency,[3]; [7],"inconclusive: 68.6 nM [rising, full curve, poor fit]"
CCCCCCCCCCCCCCO,Potency,[1],"inconclusive: 27.3 µM [activator, partial curve, poor fit]"
same,activation,[3]; [7],inconclusive: 33.6% and inconclusive: 0.894%
Cc1ccccc1N=Nc1ccc(N=Nc2c(O)ccc3ccccc23)c(C)c1,Potency,[1],"inconclusive: 21.1 µM [activator, partial curve, poor fit]"
same,Potency,[3]; [7],inactive
CCOC(=O)CN,Potency,[1],inactive
same,Potency,[3]; [7],"inconclusive: 54500 nM [inhibitor, single point]"
CCCCCOC(=O)CCCCC,Potency,[1],"inconclusive: 2.43 µM [activator, single point]"
same,Potency,[3]; [7],inactive
C/C=C/c1ccc(OC)cc1,Potency,[1],inactive
same,activation,[3]; at 42.5 µM (top of the series),inconclusive: 15%
same,activation,[3]; at 92.4 µM (top of the series),inconclusive: 8.53%
COc1ccc(OC)c(Cl)c1,Potency,[1],inactive
same,Potency,[3]; [7],inactive
COc1c(Cl)ccc(Cl)c1C(=O)O,Potency,[1],"inconclusive: 77.3 µM [activator, single point]"
same,Potency,[3]; [7],"inactive and inconclusive: 243 nM [inhibitor, single point]"
CCn1cc(C(=O)O)c(=O)c2cc(F)c(N3CCNCC3)cc21,Potency,[1],inactive
same,Potency,[3]; [7],inactive
C#C[C@]1(O)CC[C@H]2[C@@H]3CCc4cc(OC)ccc4[C@H]3CC[C@@]21C,Potency,[1],active: 54.5 µM and active: 26.6 µM
same,activation,[3]; at 42.5 µM (top of the series),inconclusive: -6.78%
same,activation,[3]; at 92.4 µM (top of the series),inconclusive: -28%
CC(=O)OCC=C(C)C,Potency,[1],"inconclusive: 50.6 µM [activator, single point]"
same,Potency,[3]; [7],inactive
CC(=O)OCC(C)OC(C)=O (stereo not drawn),Potency,[1],inconclusive: 68.6 µM [activator]
same,Potency,[3]; [7],"inconclusive: 217 nM [inhibitor, single point]"
COc1ccc(NC(C)=O)cc1,Potency,[1],inactive
same,Potency,[3]; [7],inactive
COc1ccc(-c2cc(=O)c3c(O)cc(O[C@@H]4O[C@H](CO[C@@H]5O[C@@H](C)[C@H](O)[C@@H](O)[C@H]5O)[C@@H](O)[C@H](O)[C@H]4O)cc3o2)cc1O,Potency,[1],inactive
same,Potency,[3]; [7],inactive
CC(=O)/C=C/c1ccco1,Potency,[1],inactive
same,Potency,[3]; [7],inactive
NC(=O)NC1NC(=O)NC1=O (stereo not drawn),Potency,[1],inactive
same,Potency,[3]; [7],"inconclusive: 4860 nM [inhibitor, single point]"
same,activation,[3]; [7],inconclusive: -16.8%
COc1ccc(N=[N+]([O-])c2ccc(OC)cc2)cc1,Potency,[1],inactive
same,activation,[3]; [7],inconclusive: 6.45%
CCC(=O)/C=C/C1C(C)=CCCC1(C)C (stereo not drawn),Potency,[1],inactive
same,activation,[3]; [7],inconclusive: -2.68%
same,Potency,[4],inactive
CCCNC(=O)NS(=O)(=O)c1ccc(Cl)cc1,Potency,[1],inactive
same,activation,[3]; at 42.5 µM (top of the series),inconclusive: -11.2%
same,activation,[3]; at 92.4 µM (top of the series),inconclusive: 11.8% and inactive: 1.82%
